Values quoted from earlier work, collected in article PMC7395068, “The evolution of strategies to minimise the risk of human drug-induced liver injury (DILI) in drug discovery and development” (Archives of Toxicology, 2020).

How the values were obtained:
[1] = tested on: THLE-Null and THLE-3A4 cells; details: In vitro Assay; ref Gustafsson 2014; cited from earlier work
rBsep = details: In vitro Assay; ref Dawson 2012; cited from earlier work

Q: For `CN1Cc2c(N)cccc2C(c2ccccc2)C1` (centres unmarked) [nomifensine], which THLE-Null/3A4 [1] is on record?
A: Its THLE-Null/3A4 is “-VE”.

Q: What about the “Inhibition of rBsep cutoff<3” value (rBsep) of the same compound?
A: Its value is “-VE”.
